Test results from doi:10.1101/2022.11.08.515201.
These are yes or no findings as the source states them, for the method shown. Binding seen in cells or lysates may run through a third protein. Binding can be weak; no strength is given. Tags and fused reporters may be left off the sequences shown.

Protein sequences, listed by entry. Tags and fused reporters are not part of them. Lines headed by an entry give the natural chain unless they say otherwise; changes in a name come on top.
UniProt Q9P2E2: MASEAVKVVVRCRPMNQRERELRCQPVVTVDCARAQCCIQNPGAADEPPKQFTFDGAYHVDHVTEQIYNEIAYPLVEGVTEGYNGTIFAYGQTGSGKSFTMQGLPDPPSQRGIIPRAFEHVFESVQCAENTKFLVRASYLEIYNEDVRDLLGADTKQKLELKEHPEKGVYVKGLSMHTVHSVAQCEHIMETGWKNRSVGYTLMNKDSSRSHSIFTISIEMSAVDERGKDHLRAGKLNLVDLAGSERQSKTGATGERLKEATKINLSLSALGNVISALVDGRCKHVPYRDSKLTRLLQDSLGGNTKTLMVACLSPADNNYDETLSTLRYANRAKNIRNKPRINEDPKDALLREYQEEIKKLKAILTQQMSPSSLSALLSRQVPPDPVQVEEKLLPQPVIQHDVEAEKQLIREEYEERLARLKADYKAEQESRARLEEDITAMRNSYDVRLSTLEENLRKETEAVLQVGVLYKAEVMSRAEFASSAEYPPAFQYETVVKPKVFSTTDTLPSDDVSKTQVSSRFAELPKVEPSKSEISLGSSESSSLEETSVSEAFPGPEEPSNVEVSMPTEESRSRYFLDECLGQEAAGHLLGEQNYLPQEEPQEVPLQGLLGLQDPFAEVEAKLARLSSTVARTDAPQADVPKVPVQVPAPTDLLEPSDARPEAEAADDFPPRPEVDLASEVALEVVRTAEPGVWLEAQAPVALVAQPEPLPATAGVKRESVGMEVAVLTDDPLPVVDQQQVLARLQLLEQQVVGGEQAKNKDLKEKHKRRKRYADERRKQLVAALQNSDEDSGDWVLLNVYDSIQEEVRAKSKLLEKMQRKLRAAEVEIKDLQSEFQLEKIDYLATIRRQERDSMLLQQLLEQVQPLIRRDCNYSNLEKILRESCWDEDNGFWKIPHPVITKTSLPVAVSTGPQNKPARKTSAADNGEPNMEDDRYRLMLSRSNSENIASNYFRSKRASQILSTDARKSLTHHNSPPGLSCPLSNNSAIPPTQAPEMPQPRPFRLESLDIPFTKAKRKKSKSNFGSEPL

Biological target: T1, myc-ERR1 (estrogen related receptor alpha) (UniProt P11474)
T1 sequence: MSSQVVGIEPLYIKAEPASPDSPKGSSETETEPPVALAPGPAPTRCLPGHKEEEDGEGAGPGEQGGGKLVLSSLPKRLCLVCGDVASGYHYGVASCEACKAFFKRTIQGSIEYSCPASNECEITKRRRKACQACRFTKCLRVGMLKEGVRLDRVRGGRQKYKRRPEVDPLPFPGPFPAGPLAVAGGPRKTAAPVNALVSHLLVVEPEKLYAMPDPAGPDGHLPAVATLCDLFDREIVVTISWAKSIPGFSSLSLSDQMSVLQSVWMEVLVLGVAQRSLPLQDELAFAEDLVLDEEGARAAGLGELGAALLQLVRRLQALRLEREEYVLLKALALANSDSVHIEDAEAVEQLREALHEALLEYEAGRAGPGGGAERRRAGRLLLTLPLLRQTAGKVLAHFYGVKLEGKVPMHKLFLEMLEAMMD
Assay: co-IP

| Substance | binding |
| --- | --- |
| GFP-KIF1B-NR1 (KIF1B fragment containing nuclear receptor box motif 1) (human) (domain or fragment) | binds |
| GFP-KIF17-T (NR box-containing KIF17 tail domain) (from UniProt Q9P2E2) (domain or fragment) | binds |
